The values below come from PMC11653675.

No constants are given. Whether binding was seen depends on the method and setting. In cells and extracts the contact can be indirect. A yes stands for co-enrichment or nearness to the bait. Other partners may have been found. Sequences can lack the tags named with a protein.

The test has as its target TET1CD-Flag (TET1 catalytic structural domain, Flag-tagged) (human). As to the kind of experiment: affinity purification with mass spectrometry; anti-Flag immunoprecipitation from cells stably transfected with TET1CD-Flag (TFK-1 by the results, HEK293T by the methods), control-vector cells as control; SDS-PAGE, HPLC-MS/MS (Q Exactive HF-X).

B1: PPM1G (endogenous, found by HPLC-MS/MS in the TET1CD-Flag immunoprecipitate) (enzyme, UniProt O15355 1-546)
chain: MGAYLSQPNTVKCSGDGVGAPRLPLPYGFSAMQGWRVSMEDAHNCIPELDSETAMFSVYDGHGGEEVALYCAKYLPDIIKDQKAYKEGKLQKALEDAFLAIDAKLTTEEVIKELAQIAGRPTEDEDEKEKVADEDDVDNEEAALLHEEATMTIEELLTRYGQNCHKGPPHSKSGGGTGEEPGSQGLNGEAGPEDSTRETPSQENGPTAKAYTGFSSNSERGTEAGQVGEPGIPTGEAGPSCSSASDKLPRVAKSKFFEDSEDESDEAEEEEEDSEECSEEEDGYSSEEAENEEDEDDTEEAEEDDEEEEEEMMVPGMEGKEEPGSDSGTTAVVALIRGKQLIVANAGDSRCVVSEAGKALDMSYDHKPEDEVELARIKNAGGKVTMDGRVNGGLNLSRAIGDHFYKRNKNLPPEEQMISALPDIKVLTLTDDHEFMVIACDGIWNVMSSQEVVDFIQSKISQRDENGELRLLSSIVEELLDQCLAPDTSGDGTGCDNMTCIIICFKPRNTAELQPESGKRKLEEVLSTEGAEENGNSDKKKKAKRD
As for B1, the binding result is given as “binds”.
